Assay results published in paper PMC2629459.

Protein sequences, listed by entry. Tags and fused reporters are not part of them. Lines headed by an entry give the natural chain unless they say otherwise; changes in a name come on top.
UniProt Q00987: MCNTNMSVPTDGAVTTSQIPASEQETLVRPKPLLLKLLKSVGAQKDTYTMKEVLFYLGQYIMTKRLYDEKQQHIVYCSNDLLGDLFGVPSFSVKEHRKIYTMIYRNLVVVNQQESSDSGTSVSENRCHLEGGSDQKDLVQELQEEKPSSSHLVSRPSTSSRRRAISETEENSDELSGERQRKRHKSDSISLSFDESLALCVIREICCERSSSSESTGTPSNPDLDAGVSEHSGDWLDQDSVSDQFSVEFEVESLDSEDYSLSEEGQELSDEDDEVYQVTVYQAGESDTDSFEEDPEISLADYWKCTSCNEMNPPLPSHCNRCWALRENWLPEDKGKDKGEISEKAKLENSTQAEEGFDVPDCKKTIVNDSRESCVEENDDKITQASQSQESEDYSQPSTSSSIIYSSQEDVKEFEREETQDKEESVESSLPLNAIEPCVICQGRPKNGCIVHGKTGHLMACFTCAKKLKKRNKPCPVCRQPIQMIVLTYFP
UniProt P12504: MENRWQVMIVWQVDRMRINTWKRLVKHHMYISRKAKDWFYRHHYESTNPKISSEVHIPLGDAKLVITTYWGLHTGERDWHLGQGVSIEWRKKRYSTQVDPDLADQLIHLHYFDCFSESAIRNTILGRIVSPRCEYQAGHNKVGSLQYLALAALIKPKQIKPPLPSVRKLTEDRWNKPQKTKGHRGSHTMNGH

Experiments:
[1] = biological target: HA-tagged MDM2 mutant deleted in the Zn Finger domain (UniProt Q00987); experiment: co-IP; HEK293T cotransfected with HA-tagged MDM2 Wt or deletion mutants and pNL-A1, MG132 for 6 hrs; immunoprecipitated with anti-HA mAb, blotted with anti-Vif mAb
[2] = biological target: HA-tagged MDM2 mutant deleted in the acidic domain (UniProt Q00987); experiment: as above

For “HIV-1 Vif expressed from the subgenomic vector pNL-A1 (from UniProt P12504 1-192)”, the binding [1] was “no binding” and the binding [2] was “no binding”.

These are yes or no findings as the source states them, for the method shown. Binding seen in cells or lysates may run through a third protein.
